# Measurements as given in patent US20250243277A1 (AVACTA LIFE SCIENCES, published 2025).
# Protein sequences, listed by entry. Tags and fused reporters are not part of them. Residues count along the entry.
# UniProt Q9NZQ7, residues 19-239: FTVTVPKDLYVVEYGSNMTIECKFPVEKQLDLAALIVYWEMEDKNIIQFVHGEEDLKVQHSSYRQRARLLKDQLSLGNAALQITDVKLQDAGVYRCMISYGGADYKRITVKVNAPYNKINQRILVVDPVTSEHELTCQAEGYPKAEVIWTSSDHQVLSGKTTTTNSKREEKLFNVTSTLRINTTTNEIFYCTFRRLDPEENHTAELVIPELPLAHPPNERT
# Results are given in words; binding and its absence hold for the method and conditions named. Some entries that bind do so weakly or less than the wild type.
# Target: T1, human PD-L1-Fc (R&D Systems) (human, UniProt Q9NZQ7 19-239)
# T1 construct: Bought from R&D Systems; Biotinylated in-house for the phage selection; also called huPD-L1-Fc; human PD-L1-Fc antigen; not shown: Fc part of the bought fusion
# Experiment: soluble Affimer ELISA
row,Binder,binding
1,Clone 233 (designed binder) MIPGGLSEAKPATPEIQEIVDKVKPQLEEKTGETYGKLEAVQYKTQVVLRYHFQHFPGTNYYIKVRAGDNKYMHLKVFKSLDGQGALSLPEDLVLTGYQVDKNKDDELTGF,binds
2,Clone 9 (designed binder) MIPGGLSEAKPATPEIQEIVDKVKPQLEEKTGETYGKLEAVQYKTQVVQSHVEGEWLGTNYYIKVRAGDNKYMHLKVFKSLFFAIHRLGIEDLVLTGYQVDKNKDDELTGF,binds
3,Clone 189 (designed binder) MIPGGLSEAKPATPEIQEIVDKVKPQLEEKTGETYGKLEAVQYKTQVVFQSTDSFWHGTNYYIKVRAGDNKYMHLKVFKSLFVENWQKRTEDLVLTGYQVDKNKDDELTGF,binds
4,Clone 15 (designed binder) MIPGGLSEAKPATPEIQEIVDKVKPQLEEKTGETYGKLEAVQYKTQVVPYFWFQHAKGTNYYIKVRAGDNKYMHLKVFKSLWQSLLDKNEEDLVLTGYQVDKNKDDELTGF,binds
5,Clone 201 (designed binder) MIPGGLSEAKPATPEIQEIVDKVKPQLEEKTGETYGKLEAVQYKTQVVQRAHFKQWYGTNYYIKVRAGDNKYMHLKVFKSLPGEPHHILDEDLVLTGYQVDKNKDDELTGF,binds
6,Clone 30 (designed binder) MIPGGLSEAKPATPEIQEIVDKVKPQLEEKTGETYGKLEAVQYKTQVVKYVVQASKVGTNYYIKVRAGDNKYMHLKVFKSLYGQKDGQKEEDLVLTGYQVDKNKDDELTGF,binds
7,Clone 106 (designed binder) MIPGGLSEAKPATPEIQEIVDKVKPQLEEKTGETYGKLEAVQYKTQVDFSDLEWEGQGTNYYIKVRAGDNKYMHLKVFKSLEKKWGWIYIEDLVLTGYQVDKNKDDELTGF,binds
8,Clone 224 (designed binder) MIPGGLSEAKPATPEIQEIVDKVKPQLEEKTGETYGKLEAVQYKTQVVTRRHFVQFTGTNYYIKVRAGDNKYMHLKVFKSLDEPATPTYLEDLVLTGYQVDKNKDDELTGF,binds
9,Clone 3 (designed binder) MIPGGLSEAKPATPEIQEIVDKVKPQLEEKTGETYGKLEAVQYKTQVVPNQHFIVPYGTNYYIKVRAGDNKYMHLKVFKSLHWNGGYHGHEDLVLTGYQVDKNKDDELTGF,binds
10,Clone 26 (designed binder) MIPGGLSEAKPATPEIQEIVDKVKPQLEEKTGETYGKLEAVQYKTQVVFVFLEVKWDGTNYYIKVRAGDNKYMHLKVFKSLRKERHQFDIEDLVLTGYQVDKNKDDELTGF,binds
11,Clone 62 (designed binder) MIPGGLSEAKPATPEIQEIVDKVKPQLEEKTGETYGKLEAVQYKTQVVFRQHFPNFSGTNYYIKVRAGDNKYMHLKVFKSLNGLEDPTQDEDLVLTGYQVDKNKDDELTGF,binds
12,Clone 38 (designed binder) MIPGGLSEAKPATPEIQEIVDKVKPQLEEKTGETYGKLEAVQYKTQVVRVPLDSNKWGTNYYIKVRAGDNKYMHLKVFKSLFRVRDYSFLEDLVLTGYQVDKNKDDELTGF,binds

# Next, values leading:
row,binding,Binder
1,binds,Clone 129 (designed binder) MIPGGLSEAKPATPEIQEIVDKVKPQLEEKTGETYGKLEAVQYKTQVVQRVHFPDWPGTNYYIKVRAGDNKYMHLKVFKSLNKENQDEEDEDLVLTGYQVDKNKDDELTGF
2,binds,Clone 179 (designed binder) MIPGGLSEAKPATPEIQEIVDKVKPQLEEKTGETYGKLEAVQYKTQVVFKTDDARWIGTNYYIKVRAGDNKYMHLKVFKSLFNYNKTEHTEDLVLTGYQVDKNKDDELTGF
3,binds,Clone 100 (designed binder) MIPGGLSEAKPATPEIQEIVDKVKPQLEEKTGETYGKLEAVQYKTQVDHTDVDWHFWGTNYYIKVRAGDNKYMHLKVFKSLAPAAPPWEFEDLVLTGYQVDKNKDDELTGF
4,binds,Clone 89 (designed binder) MIPGGLSEAKPATPEIQEIVDKVKPQLEEKTGETYGKLEAVQYKTQVVDFRVAWHWVGTNYYIKVRAGDNKYMHLKVFKSLFNHRPGKPDEDLVLTGYQVDKNKDDELTGF
5,binds,Clone 32 (designed binder) MIPGGLSEAKPATPEIQEIVDKVKPQLEEKTGETYGKLEAVQYKTQVVKYVVQASKVGTNYYIKVRAGDNKYMHLKVFKSLYGQKDGQKEEDLVLTGYQVDKNKDDELTGF
6,binds,Clone 67 (designed binder) MIPGGLSEAKPATPEIQEIVDKVKPQLEEKTGETYGKLEAVQYKTQVVSTKNLWRWSGTNYYIKVRAGDNKYMHLKVFKSLFNGAGGPDSEDLVLTGYQVDKNKDDELTGF
7,binds,Clone 205 (designed binder) MIPGGLSEAKPATPEIQEIVDKVKPQLEEKTGETYGKLEAVQYKTQVVVFLSEIHWYGTNYYIKVRAGDNKYMHLKVFKSLRINNSGLSREDLVLTGYQVDKNKDDELTGF
8,binds,Clone 236 (designed binder) MIPGGLSEAKPATPEIQEIVDKVKPQLEEKTGETYGKLEAVQYKTQVVRDGTFWDFWGTNYYIKVRAGDNKYMHLKVFKSLSQDYNGGQAEDLVLTGYQVDKNKDDELTGF
9,binds,Clone 190 (designed binder) MIPGGLSEAKPATPEIQEIVDKVKPQLEEKTGETYGKLEAVQYKTQVVGVKSTFHWSGTNYYIKVRAGDNKYMHLKVFKSLFNNHPLSPDEDLVLTGYQVDKNKDDELTGF
10,binds,Clone 253 (designed binder) MIPGGLSEAKPATPEIQEIVDKVKPQLEEKTGETYGKLEAVQYKTQVVTRPHFPGWNGTNYYIKVRAGDNKYMHLKVFKSLDFDHNFIADEDLVLTGYQVDKNKDDELTGF
11,binds,Clone 96 (designed binder) MIPGGLSEAKPATPEIQEIVDKVKPQLEEKTGETYGKLEAVQYKTQVDFNQSRHGHGTNYYIKVRAGDNKYMHLKVFKSLELLHGLWWVEDLVLTGYQVDKNKDDELTGF
12,binds,Clone 207 (designed binder) MIPGGLSEAKPATPEIQEIVDKVKPQLEEKTGETYGKLEAVQYKTQVVDTKTPWLWTGTNYYIKVRAGDNKYMHLKVFKSLFLKILAEDDEDLVLTGYQVDKNKDDELTGF
13,binds,Clone 168 (designed binder) MIPGGLSEAKPATPEIQEIVDKVKPQLEEKTGETYGKLEAVQYKTQVVWFDTWPVPEGTNYYIKVRAGDNKYMHLKVFKSLNWNDHLSTYEDLVLTGYQVDKNKDDELTGF
